Some entries share one result that the patent states for a list of compounds. Some ranges recur; such a range may be that of the whole group of compounds.
Test system: not listed separately
Assay: Water solubility test at 25° C. per 1 gram of compound (European Pharmacopoeia 10.0 / Polish Pharmacopoeia XII)
Conditions: listed as compound 5
For `CC(C(=O)NCc1ccccc1)N1C(=O)CC(N(C)C)C1=O` (stereo not shown) [Compound 5, N-benzyl-2-(3-(dimethylamino)-2,5-dioxopyrrolidin-1-yl)propanamide], the “Matching term (solubility in water, pharmacopoeial terminology)” value was “good water solubility”.

Test system: male white Swiss mice (CD-1)
Assay: Anticonvulsant screening summarised over MES, scPTZ and 6 Hz (32 mA) models
Format: in vivo
Conditions: 100 mg/kg intraperitoneal, span over the three models
Procedure: The studies were carried out on male white Swiss mice (CD-1) weighing 18-26 g. All procedures were performed in accordance with the applicable Polish and international guidelines for the ethics of animal research, after obtaining of the appropriate institutional consent. […] Screening tests were performed in groups consisted of 4 mice. All tests were performed according to the procedures described in the specialist literature: maximal electroshock test (MES) (Kamiński et al. Bioorg. Med. Chem. 2015, 23, 2548-2561; Castel-Branco et al. Pharmacol. 2009, 31, 101-106, Riban et al. Neurosci. 2002, 112, 101-111); psychomotor seizure test (6 Hz, 32 mA) (Barton et al. Epilepsy Res. 2001, 47, 217-227; Wojda et al. Epilepsy Res. 2009, 86, 163-174); subcutaneous pentylenetetrazole test (scPTZ) (Ferreri et al. Pharmacol. Biochem. Behav. 2004, 77, 85-94).
These models are recognized as the most important and widely used pharmacological tests allowing the identification of candidates for new antiepileptic drugs. […] This is crucial in situations requiring immediate intervention to stop seizures, including, e.g status epilpepticus, which is considered as a life-threatening situation.
For `C[C@H](C(=O)NCc1ccccc1)N1C(=O)C[C@H](N(C)C)C1=O.Cl` (stereo in doubt) [Compound (2R,S)-5 × HCl, (2R,S)-N-benzyl-2-(3-(dimethylamino)-2,5-dioxopyrrolidin-1-yl)propanamide hydrochloride], the “Animals protected in MES, scPTZ and 6 Hz (32 mA) models” value (from here on “Animals protected in MES”) was 25-100%. For `C[C@H](C(=O)NCc1ccccc1F)N1C(=O)C[C@H](N(C)C)C1=O.Cl` (stereo in doubt) [Compound (2R,S)-6 × HCl, (2R,S)-2-(3-(dimethylamino)-2,5-dioxopyrrolidin-1-yl)-N-(2-fluorobenzyl)propanamide hydrochloride], the “Animals protected in MES” value was 25-100%. With `C[C@H](C(=O)NCc1ccccc1)N1C(=O)CC(N(C)C)C1=O.Cl` (stereo partly drawn) [Compound (2R)-5 × HCl, (2R)-N-benzyl-2-(3-(dimethylamino)-2,5-dioxopyrrolidin-1-yl)propanamide hydrochloride] the “Animals protected in MES” value was 25-100%. With `C[C@H](C(=O)NCc1ccccc1F)N1C(=O)CC(N(C)C)C1=O.Cl` (stereo partly drawn) [Compound (2R)-6 × HCl, (2R)-2-(3-(dimethylamino)-2,5-dioxopyrrolidin-1-yl)-N-(2-fluorobenzyl)propanamide hydrochloride] the “Animals protected in MES” value was 25-100%. For `C[C@@H](C(=O)NCc1ccccc1)N1C(=O)CC(N(C)C)C1=O.Cl` (stereo partly drawn) [Compound (2S)-5 × HCl, (2S)-N-benzyl-2-(3-(dimethylamino)-2,5-dioxopyrrolidin-1-yl)propanamide hydrochloride], the “Animals protected in MES” value was 25-100%. For `C[C@@H](C(=O)NCc1ccccc1F)N1C(=O)CC(N(C)C)C1=O.Cl` (stereo partly drawn) [Compound (2S)-6 × HCl, (2S)-2-(3-(dimethylamino)-2,5-dioxopyrrolidin-1-yl)-N-(2-fluorobenzyl)propanamide hydrochloride], the “Animals protected in MES” value was 25-100%.

Source: patent US20230192608A1, “WATER-SOLUBLE, MODIFIED AMINO ACID DERIVATIVES FOR TREATMENT OF NEUROLOGICAL DISEASES, AND SELECTED PSYCHIATRIC DISORDERS” (Uniwersytet Jagiellonski, priority 2020, published 2023)
